# Primary screen of a compound library

Amino acid sequences for entries named in this document (tags omitted).
UniProt E9BF75, entry or part of it: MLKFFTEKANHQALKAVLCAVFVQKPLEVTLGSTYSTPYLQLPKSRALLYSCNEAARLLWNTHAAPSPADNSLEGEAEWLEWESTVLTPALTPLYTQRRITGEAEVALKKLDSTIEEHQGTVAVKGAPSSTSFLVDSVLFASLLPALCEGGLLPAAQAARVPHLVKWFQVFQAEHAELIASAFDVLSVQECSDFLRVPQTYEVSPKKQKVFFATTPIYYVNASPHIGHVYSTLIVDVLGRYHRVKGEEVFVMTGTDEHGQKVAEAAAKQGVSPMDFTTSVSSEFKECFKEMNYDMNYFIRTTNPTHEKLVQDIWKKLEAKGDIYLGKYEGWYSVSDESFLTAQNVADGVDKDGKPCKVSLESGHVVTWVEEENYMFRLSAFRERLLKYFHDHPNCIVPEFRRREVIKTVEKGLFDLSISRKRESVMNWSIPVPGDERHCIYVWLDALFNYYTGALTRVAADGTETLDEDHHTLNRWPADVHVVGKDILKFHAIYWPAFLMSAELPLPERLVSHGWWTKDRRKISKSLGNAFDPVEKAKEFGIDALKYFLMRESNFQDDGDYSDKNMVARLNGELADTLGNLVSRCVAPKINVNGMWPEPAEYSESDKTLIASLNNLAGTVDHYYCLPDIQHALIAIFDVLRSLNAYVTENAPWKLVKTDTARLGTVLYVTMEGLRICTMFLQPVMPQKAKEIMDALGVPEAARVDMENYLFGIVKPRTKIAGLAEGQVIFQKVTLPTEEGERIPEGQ

Source: ChEMBL document CHEMBL3988442, “University of Dundee, Small-Polar-MMV Screening Library” (2021).

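Primary screen of methionyl-tRNA synthetase; the read-out is not stated. Target: Methionyl-tRNA synthetase (putative), Leishmania donovani (UniProt E9BF75). The test concentration is not given. The values are filed as inhibition. Of about 68,000 compounds tested this way, about 24 (0.035%) reached 50% or more in at least one test.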

Results are percentages, as filed.
The controls that fix the scale are not given in the record; negative values are as filed.
Compounds were drawn at random from those tested, without regard to their results.

| # | compound | inhibition |
|---|---|---|
| 1 | `CN(Cc1cc(-c2ccccc2)no1)CC1CCCN1c1cccnn1` (centres unmarked) | 17.75 |
| 2 | `Cc1cc(C(=O)N2Cc3ccccc3OC3(CCOCC3)C2)nc(N)n1` | 9.932 |
| 3 | `CCO[C@@H]1CC[C@H]2[C@H]1OCCN2S(=O)(=O)c1cn(C)cn1` | 15.33 |
| 4 | `CNCC(=O)N1CCC(c2ccnc(Nc3ccc(C)cn3)n2)C1` (centres unmarked) | 17.47 |
| 5 | `CCN(c1ccc(C(=O)N2CCCCCC2)cc1)S(=O)(=O)CC` | 5.07 |
| 6 | `Cc1n[nH]c2c1C(c1ccc3c(c1)OCCO3)SCC(=O)N2` (centres unmarked) | 8.527 |
| 7 | `CN(CCc1cn[nH]c1)Cc1nc(Cc2cccc(F)c2)no1` | 6.863 |
| 8 | `O=C(N[C@@H]1CN(Cc2c[nH]nc2-c2ccccc2)C[C@H]1O)c1cc[nH]n1` | 8.723 |
| 9 | `O=C(NCCSC1CCCC1)c1ccc(F)cc1F` | 1.446 |
| 10 | `COc1cc(CNC(C)c2nnc3n2CCC3)cc(OC)c1` (centres unmarked) | 5.177 |
| 11 | `Cc1cc(NC(=O)c2ccc(N3CCOCC3)c(C)c2)[nH]n1` | 0.7371 |
| 12 | `Cc1cc2ncc(C(C)NCc3cccnc3)c(C)n2n1` (centres unmarked) | 5.797 |
| 13 | `CCCc1n[nH]c(C2CN(C(=O)c3cccnc3N(C)C)CCO2)n1` (centres unmarked) | 6.425 |
| 14 | `CCOCC(=O)N1C[C@H]2CN(CC3CC3)C(=O)[C@H]2C1` | 11.67 |
| 15 | `Cc1nn(C)cc1CN(C)C(=O)c1cnccn1` | 22.58 |
| 16 | `CC(C(=O)Nc1ncccn1)N1CCC(n2ccnc2)CC1` (centres unmarked) | 10.1 |
| 17 | `Cc1cccc(N2CCOCC3(C2)CN(c2ccccc2)C(=O)CO3)n1` (centres unmarked) | 5.495 |
| 18 | `Cc1cc(C(=O)O)c2c(Br)cccc2n1` | 9.859 |
| 19 | `COc1cc(CN2CCC3(CC(Nc4ccncn4)C3)C2)cc(OC)c1` (centres unmarked) | 21.47 |
| 20 | `Cc1nc(C)n(C2CCCN(C(=O)CCCNc3ncccn3)C2)n1` (centres unmarked) | 21.08 |
| 21 | `Cc1ccc2[nH]c(CN(C)Cc3ccccc3C(=O)O)nc2c1` | 16.03 |
| 22 | `Cc1ccc(C(C)(O)CNC(=O)NCCc2ccc3c(c2)CCO3)o1` (centres unmarked) | 2.089 |
| 23 | `COc1ccc(CNc2c(C)nn(C(C)C)c2C)cc1OC` | 4.359 |
| 24 | `CCn1cc(NC(=O)CCc2ccc3c(c2)OCCCO3)cn1` | 13.59 |
| 25 | `CN(C)c1ncccc1C(=O)N1CCCC1Cn1cccn1` (centres unmarked) | 7.977 |
| 26 | `Cc1noc(C)c1Cc1nc(N(C)C)no1` | 11.8 |
| 27 | `Cc1ccccc1CC(=O)N1C[C@H]2CC[C@@H]1CN(Cc1cccnc1)C2` | 9.067 |
| 28 | `Cc1c(Cl)c(C(=O)N2CC(c3cccnc3)C2)nn1C` | 7.94 |
| 29 | `CN(Cc1ccco1)[C@@H]1CN(C(=O)C2CCOCC2)C[C@@H]2CCCO[C@@H]21` | 18.75 |
| 30 | `CC(C)N1CCN(C(=O)Nc2cnn(CC(N)=O)c2)CC1` | 6.135 |
| 31 | `CC(C)N1CCO[C@H]2CN(C(=O)Cc3ccsc3)C[C@H]21` | 11.78 |
| 32 | `O=C1O[C@@H]2CN(Cc3cc4ccccc4o3)C[C@@H]2N1Cc1ccccn1` | 11.17 |
| 33 | `Cc1cc(C(=O)NCCCn2nccc2C2CC2)c(=O)[nH]c1C` | 7.317 |
| 34 | `COc1cc(F)c(C(=O)N2C[C@@H](CN(C)CCO)[C@@H](CO)C2)c(F)c1` | 21.99 |

The first 2 entries again:

{"compound": "CN(Cc1cc(-c2ccccc2)no1)CC1CCCN1c1cccnn1", "stereo": "centres unmarked", "inhibition": 17.75}
{"compound": "Cc1cc(C(=O)N2Cc3ccccc3OC3(CCOCC3)C2)nc(N)n1", "inhibition": 9.932}